Results deposited as PubChem BioAssay AID1259405 (NCATS, 2018).
In all, the deposit lists about 50,000 reagents; below is a random part of them. About 4,000 of all reagents (8%) count as active. 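Mouse siRNA library applied to hamster cells; one well for each siRNA.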 A number with no mark means an inactive call. The numbers tell different reagents against one gene apart.

- Test: 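Knock-downs that lift recombinant protein yield in hamster ovary cells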 (primary screen)
- Cell system: Chinese hamster CHO-K1 ovary cells with stable secreted eGFP expression
- Knock-down reagent: single siRNA against mouse genes, 0.8 pmol siRNA per well (2 µl of 400 nM stock)
- Time to read-out: 3 days
- Detection: 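Per-well intracellular GFP measured by laser scanning cytometry, plus viability from ATP luminescence, each relative to plate median of non-targeting control wells, in %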
- Reading the numbers: GFP, % of control: higher = more GFP per well, higher productivity; viability (ATP), % of control: higher = more viable cells (more ATP)
- Rule for the call: 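a knock-down is called active if GFP reaches 120% or more of non-targeting control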

Cysltr2 #1 gave GFP, % of control 61.9; viability (ATP), % of control 80.6.
Cysltr2 #2 scored GFP, % of control 72.1; viability (ATP), % of control 85.8.
With knock-down of Cysltr2 #3 the results were GFP, % of control 53.6; viability (ATP), % of control 69.8.
Silencing of Fam178b #1 came out at: GFP, % of control 111; viability (ATP), % of control 90.3.
Fam178b #2 showed GFP, % of control 109; viability (ATP), % of control 99.6.
Silencing of Fam178b #3 came out at: GFP, % of control 120; viability (ATP), % of control 140.
For Gpr87 #1 the deposit lists GFP, % of control 82.3; viability (ATP), % of control 76.5.
Against Gpr87 #2, the entry reads GFP, % of control 62.3; viability (ATP), % of control 73.
For Gpr87 #3 the deposit lists GFP, % of control 64.5; viability (ATP), % of control 74.5.
For Tmem50b #1, the values are GFP, % of control 64.5; viability (ATP), % of control 62.4.
Knock-down of Tmem50b #2 resulted in: GFP, % of control 71.6; viability (ATP), % of control 64.6.
After knock-down of Tmem50b #3, the screen gave GFP, % of control 62.6; viability (ATP), % of control 78.2.
Silencing of Zfp276 #1 resulted in: GFP, % of control 56.1; viability (ATP), % of control 88.8.
After knock-down of Zfp276 #2 the results were GFP, % of control 71.7; viability (ATP), % of control 84.1.
Against Zfp276 #3, the values are GFP, % of control 99.9; viability (ATP), % of control 108.
With knock-down of Fastkd2 #1, the screen gave GFP, % of control 79.3; viability (ATP), % of control 91.9.
Fastkd2 #2 scored GFP, % of control 126 (active); viability (ATP), % of control 68.1.
Knock-down of Fastkd2 #3 came out at: GFP, % of control 129 (active); viability (ATP), % of control 72.5.

6 entries from above, ordered by “viability (ATP), % of control”, highest first:
Zfp276 #1 → GFP, % of control = 56.1; viability (ATP), % of control = 88.8
Tmem50b #3 → GFP, % of control = 62.6; viability (ATP), % of control = 78.2
Gpr87 #3 → GFP, % of control = 64.5; viability (ATP), % of control = 74.5
Gpr87 #2 → GFP, % of control = 62.3; viability (ATP), % of control = 73
Tmem50b #2 → GFP, % of control = 71.6; viability (ATP), % of control = 64.6
Tmem50b #1 → GFP, % of control = 64.5; viability (ATP), % of control = 62.4

Next entries follow:
Depletion of Ggt5 #1 came out at: GFP, % of control 79.4; viability (ATP), % of control 73.8.
Knock-down of Ggt5 #2 came out at: GFP, % of control 21.9; viability (ATP), % of control 30.6.
After knock-down of Ggt5 #3, the screen gave GFP, % of control 71.2; viability (ATP), % of control 77.8.
For Dnaaf19 #1, the entry reads GFP, % of control 86; viability (ATP), % of control 97.2.
Depletion of Dnaaf19 #2 resulted in: GFP, % of control 68.2; viability (ATP), % of control 94.5.
Dnaaf19 #3 showed GFP, % of control 94.5; viability (ATP), % of control 115.
For Gap43 #1, the entry reads GFP, % of control 44.8; viability (ATP), % of control 49.4.
Against Gap43 #2, the values are GFP, % of control 107; viability (ATP), % of control 75.1.
After knock-down of Gap43 #3 the results were GFP, % of control 86.8; viability (ATP), % of control 83.1.
After knock-down of Entrep2 #1, the record shows GFP, % of control 82.9; viability (ATP), % of control 51.5.
Silencing of Entrep2 #2 resulted in: GFP, % of control 59.6; viability (ATP), % of control 67.4.
Knock-down of Entrep2 #3 came out at: GFP, % of control 75.9; viability (ATP), % of control 64.9.
After knock-down of Klhl7 #1, the screen gave GFP, % of control 59; viability (ATP), % of control 72.7.
For Klhl7 #2, the entry reads GFP, % of control 64.3; viability (ATP), % of control 65.4.
For Klhl7 #3, the values are GFP, % of control 101; viability (ATP), % of control 81.1.
Silencing of Hus1b #1 resulted in: GFP, % of control 58.8; viability (ATP), % of control 68.3.
Hus1b #2 gave GFP, % of control 112; viability (ATP), % of control 125.
Hus1b #3 showed GFP, % of control 89.6; viability (ATP), % of control 98.3.
Rhoa #1 showed GFP, % of control 68.2; viability (ATP), % of control 90.8.
Against Rhoa #2, the values are GFP, % of control 97.4; viability (ATP), % of control 105.
With knock-down of Rhoa #3, the screen gave GFP, % of control 51.8; viability (ATP), % of control 82.3.
Depletion of H2-M10.6 #1 gave: GFP, % of control 83.2; viability (ATP), % of control 64.7.
For H2-M10.6 #2 the deposit lists GFP, % of control 85.8; viability (ATP), % of control 79.9.
With knock-down of H2-M10.6 #3 the results were GFP, % of control 73.4; viability (ATP), % of control 66.3.
Bhlha9 #1 gave GFP, % of control 91.6; viability (ATP), % of control 81.6.
Knock-down of Bhlha9 #2 gave: GFP, % of control 44.2; viability (ATP), % of control 66.4.
With knock-down of Bhlha9 #3, the screen gave GFP, % of control 97.6; viability (ATP), % of control 123.
Against Dag1 #1, the values are GFP, % of control 126 (active); viability (ATP), % of control 102.
Dag1 #2 scored GFP, % of control 63.2; viability (ATP), % of control 57.7.
For Dag1 #3, the values are GFP, % of control 186 (active); viability (ATP), % of control 90.7.
Against Srp14 #1, the entry reads GFP, % of control 64.3; viability (ATP), % of control 85.9.
After knock-down of Srp14 #2, the record shows GFP, % of control 102; viability (ATP), % of control 82.2.
For Ankle1 #1, the entry reads GFP, % of control 78; viability (ATP), % of control 80.8.
After knock-down of Ankle1 #2 the results were GFP, % of control 85.8; viability (ATP), % of control 92.3.
With knock-down of Ankle1 #3, the record shows GFP, % of control 85.2; viability (ATP), % of control 97.9.
